At least one structure is not confirmed: it was looked up by name or label, or the drawing left a doubt.
System: MTB transcriptome
Format: cell-based, Mycobacterium tuberculosis

SMILES: O=[N+]([O-])c1cn2c(n1)OC[C@@H](OCc1ccc(OC(F)(F)F)cc1)C2 [PA-824, pretomanid]
- outcome of transcriptome comparison among 36 compounds tested: identified

Source: patent US10472687B2, “Methods to identify antituberculosis compounds” (priority 2016, dated 2019)
